Source: PMC4373798
No constants are given. Whether binding was seen depends on the method and setting. In cells and extracts the contact can be indirect.

By UniProt entry, the sequences of proteins in these tests, tags left out.
UniProt P26231: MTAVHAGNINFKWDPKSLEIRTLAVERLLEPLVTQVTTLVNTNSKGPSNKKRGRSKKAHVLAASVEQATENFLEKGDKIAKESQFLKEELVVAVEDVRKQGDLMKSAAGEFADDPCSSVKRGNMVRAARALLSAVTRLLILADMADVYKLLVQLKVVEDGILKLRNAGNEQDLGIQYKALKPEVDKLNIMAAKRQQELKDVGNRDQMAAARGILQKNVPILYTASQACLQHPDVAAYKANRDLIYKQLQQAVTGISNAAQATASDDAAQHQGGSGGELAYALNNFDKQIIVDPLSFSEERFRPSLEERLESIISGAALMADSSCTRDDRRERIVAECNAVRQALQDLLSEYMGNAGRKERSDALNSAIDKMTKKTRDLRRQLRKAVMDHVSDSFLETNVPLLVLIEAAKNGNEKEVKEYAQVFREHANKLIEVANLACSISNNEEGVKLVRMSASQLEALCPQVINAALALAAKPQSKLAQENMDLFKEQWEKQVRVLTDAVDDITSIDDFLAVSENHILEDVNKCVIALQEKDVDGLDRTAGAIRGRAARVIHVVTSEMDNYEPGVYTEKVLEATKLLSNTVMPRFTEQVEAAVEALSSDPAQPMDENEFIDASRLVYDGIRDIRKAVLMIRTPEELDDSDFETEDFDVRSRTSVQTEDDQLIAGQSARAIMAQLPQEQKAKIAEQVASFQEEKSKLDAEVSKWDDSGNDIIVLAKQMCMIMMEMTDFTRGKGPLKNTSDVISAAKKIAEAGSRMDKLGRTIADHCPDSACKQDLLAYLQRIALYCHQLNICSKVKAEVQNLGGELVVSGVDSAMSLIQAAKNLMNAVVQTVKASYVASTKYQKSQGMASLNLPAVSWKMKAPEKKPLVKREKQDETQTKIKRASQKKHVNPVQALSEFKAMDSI

Molecular target: GFP-tagged BirA*-α-catenin (GFP-BirA*-α-catenin fusion with epithelia-specific α-catenin) (UniProt P26231)
Test: co-IP; lysates of BirA*-α-catenin MDCK cells from stretch chambers; GFP or E-cadherin antibody cross-linked to Protein A magnetic beads; 0.1% SDS wash; Western blot with antibodies or streptavidin-HRP

B1: β-catenin (protein, UniProt B6V8E6 1-781)
chain: MATQADLMELDMAMEPDRKAAVSHWQQQSYLDSGIHSGATTTAPSLSGKGNPEEEDVDTTQVLYEWEQGFSQSFTQEQVADIDGQYAMTRAQRVRAAMFPETLDEGMQIPSTQFDAAHPTNVQRLAEPSQMLKHAVVNLINYQDDAELATRAIPELTKLLNDEDQVVVNKAAVMVHQLSKKEASRHAIMRSPQMVSAIVRTMQNTNDVETARCTAGTLHNLSHHREGLLAIFKSGGIPALVKMLGSPVDSVLFYAITTLHNLLLHQEGAKMAVRLAGGLQKMVALLNKTNVKFLAITTDCLQILAYGNQESKLIILASGGPQALVNIMRTYTYEKLLWTTSRVLKVLSVCSSNKPAIVEAGGMQALGLHLTDPSQRLVQNCLWTLRNLSDAATKQEGMEGLLGTLVQLLGSDDINVVTCAAGILSNLTCNNYKNKMMVCQVGGIEALVRTVLRAGDREDITEPAICALRHLTSRHQEAEMAQNAVRLHYGLPVVVKLLHPPSHWPLIKATVGLIRNLALCPANHAPLREQGAIPRLVQLLVRAHQDTQRRTSMGGTQQQFVEGVRMEEIVEGCTGALHILARDVHNRIVIRGLNTIPLFVQLLYSPIENIQRVAAGVLCELAQDKEAAEAIEAEGATAPLTELLHSRNEGVATYAAAVLFRMSEDKPQDYKKRLSVELTSSLFRTEPMAWNETADLGLDIGAQGEPLGYRQDDPSYRSFHSGGYGQDALGMDPMMEHEMGGHHPGADYPVDGLPDLGHAQDLMDGLPPGDSNQLAWFDTDL
  binding: no binding (condition: with 0.1% SDS wash)
